Record: PubChem BioAssay AID1259254 (NCATS, 2017)
Assay: 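Gene knock-downs that lead to re-replication, shown by excess G2 DNA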 (primary screen). Cells: human HCT116 colorectal cancer cells. Reagent: single siRNA against human genes. Duration: 3 days. Read-out: 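Imaged Hoechst DNA stain sorts each cell into a cycle phase by DNA amount; per plate, G2 fraction set to 0% for non-targeting and 100% for GMNN siRNA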. Direction: G2 robust z-score: higher = more G2 cells, more excess DNA replication. Call rule: 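An siRNA counts as active if its G2 robust z-score lies at least 5 MADs above the screen median; here such calls match roughly 38% of GMNN control or more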.
Shown is one part, drawn at random, of about 59,000 reagents. About 1,550 of all reagents (2.6%) count as active. 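G2 share is only a proxy for re-replication; each gene was hit by three separate siRNAs, and active genes were retested.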 The numbers tell different reagents against one gene apart. Not all columns of the deposit are shown. Not given: the amount of reagent.

target gene	reagent no.	G2 robust z-score	Outcome
PRXL2CP1 (PRXL2C pseudogene 1)	1	-0.385	inactive
PRXL2CP1 (PRXL2C pseudogene 1)	2	-0.535	inactive
PRXL2CP1 (PRXL2C pseudogene 1)	3	0.233	inactive
CDK2AP1 (cyclin dependent kinase 2 associated protein 1)	1	1.1	inactive
CDK2AP1 (cyclin dependent kinase 2 associated protein 1)	2	-0.947	inactive
CDK2AP1 (cyclin dependent kinase 2 associated protein 1)	3	-1.29	inactive
NTMT2 (N-terminal Xaa-Pro-Lys N-methyltransferase 2)	1	-0.948	inactive
NTMT2 (N-terminal Xaa-Pro-Lys N-methyltransferase 2)	2	-0.321	inactive
NTMT2 (N-terminal Xaa-Pro-Lys N-methyltransferase 2)	3	2.3	inactive
RPS16 (ribosomal protein S16)	1	7.8	active
RPS16 (ribosomal protein S16)	2	7.81	active
RPS16 (ribosomal protein S16)	3	8.31	active
ALS2CL (ALS2 C-terminal like)	1	1.04	inactive
ALS2CL (ALS2 C-terminal like)	2	2.74	inactive
ALS2CL (ALS2 C-terminal like)	3	-0.197	inactive
WFDC10A (WAP four-disulfide core domain 10A)	1	-0.044	inactive
WFDC10A (WAP four-disulfide core domain 10A)	2	0.52	inactive
WFDC10A (WAP four-disulfide core domain 10A)	3	0.447	inactive
GATA5 (GATA binding protein 5)	1	0.188	inactive
GATA5 (GATA binding protein 5)	2	-0.338	inactive
GATA5 (GATA binding protein 5)	3	-0.54	inactive
GDPD2 (glycerophosphodiester phosphodiesterase domain containing 2)	1	-1.1	inactive
GDPD2 (glycerophosphodiester phosphodiesterase domain containing 2)	2	2.71	inactive
GDPD2 (glycerophosphodiester phosphodiesterase domain containing 2)	3	-0.529	inactive
CFH (complement factor H)	1	-0.43	inactive
CFH (complement factor H)	2	-0.0275	inactive
CFH (complement factor H)	3	0.301	inactive
HSPA1B (heat shock protein family A (Hsp70) member 1B)	1	-0.298	inactive
HSPA1B (heat shock protein family A (Hsp70) member 1B)	2	-0.537	inactive
HSPA1B (heat shock protein family A (Hsp70) member 1B)	3	-0.0294	inactive
THAP12P1 (THAP domain containing 12 pseudogene 1)	1	5.3	active
THAP12P1 (THAP domain containing 12 pseudogene 1)	2	1.26	inactive
THAP12P1 (THAP domain containing 12 pseudogene 1)	3	2.77	inactive
LOC401442	1	-0.514	inactive
LOC401442	2	1.09	inactive
LOC401442	3	-0.266	inactive
MOCS3 (molybdenum cofactor synthesis 3)	1	7.15	active
MOCS3 (molybdenum cofactor synthesis 3)	2	0.36	inactive
MOCS3 (molybdenum cofactor synthesis 3)	3	-0.668	inactive
TDRD9 (tudor domain containing 9)	1	-0.61	inactive
TDRD9 (tudor domain containing 9)	2	-0.887	inactive
TDRD9 (tudor domain containing 9)	3	-0.598	inactive
SLC47A2	1	0.328	inactive
SLC47A2	2	0.413	inactive
SLC47A2	3	0.168	inactive
COL4A1 (collagen type IV alpha 1 chain)	1	0.547	inactive
COL4A1 (collagen type IV alpha 1 chain)	2	-0.196	inactive
COL4A1 (collagen type IV alpha 1 chain)	3	-0.354	inactive
GINS1 (GINS complex subunit 1)	1	-0.537	inactive
GINS1 (GINS complex subunit 1)	2	6.09	active
GINS1 (GINS complex subunit 1)	3	-0.435	inactive
PHIP (PHIP subunit of CUL4-Ring ligase complex)	1	0.32	inactive
PHIP (PHIP subunit of CUL4-Ring ligase complex)	2	-0.901	inactive
PHIP (PHIP subunit of CUL4-Ring ligase complex)	3	-0.204	inactive
TRPV2	1	0.834	inactive
TRPV2	2	-0.879	inactive
TRPV2	3	0.565	inactive
CCL24 (C-C motif chemokine ligand 24)	1	-0.901	inactive
CCL24 (C-C motif chemokine ligand 24)	2	-0.754	inactive
CCL24 (C-C motif chemokine ligand 24)	3	1.81	inactive
GNG2 (G protein subunit gamma 2)	1	-1.17	inactive
GNG2 (G protein subunit gamma 2)	2	0.0099	inactive
GNG2 (G protein subunit gamma 2)	3	-1.14	inactive
MDFI (MyoD family inhibitor)	1	0.545	inactive
MDFI (MyoD family inhibitor)	2	-0.706	inactive
MDFI (MyoD family inhibitor)	3	1.64	inactive
MRPS9 (mitochondrial ribosomal protein S9)	1	0.257	inactive
MRPS9 (mitochondrial ribosomal protein S9)	2	0.678	inactive
MRPS9 (mitochondrial ribosomal protein S9)	3	0.69	inactive

11 entries from above, set out differently.
GDPD2 (glycerophosphodiester phosphodiesterase domain containing 2) #2 — G2 robust z-score: 2.71; Outcome: inactive
GDPD2 (glycerophosphodiester phosphodiesterase domain containing 2) #3 — G2 robust z-score: -0.529; Outcome: inactive
CFH (complement factor H) #1 — G2 robust z-score: -0.43; Outcome: inactive
CFH (complement factor H) #2 — G2 robust z-score: -0.0275; Outcome: inactive
CFH (complement factor H) #3 — G2 robust z-score: 0.301; Outcome: inactive
HSPA1B (heat shock protein family A (Hsp70) member 1B) #1 — G2 robust z-score: -0.298; Outcome: inactive
HSPA1B (heat shock protein family A (Hsp70) member 1B) #2 — G2 robust z-score: -0.537; Outcome: inactive
HSPA1B (heat shock protein family A (Hsp70) member 1B) #3 — G2 robust z-score: -0.0294; Outcome: inactive
THAP12P1 (THAP domain containing 12 pseudogene 1) #1 — G2 robust z-score: 5.3; Outcome: active
THAP12P1 (THAP domain containing 12 pseudogene 1) #2 — G2 robust z-score: 1.26; Outcome: inactive
THAP12P1 (THAP domain containing 12 pseudogene 1) #3 — G2 robust z-score: 2.77; Outcome: inactive
